Experimental data reported in publication PMC6170617.
No constants are given. Whether binding was seen depends on the method and setting. Binding seen in cells or lysates may run through a third protein. Some binding calls cover weakened binding; strength is not graded here. Each block holds one binder with its values, some of them ahead of it.

Biological target: T1, osteocalcin (mouse (endogenous in striatum)) (UniProt P86546)
T1 sequence: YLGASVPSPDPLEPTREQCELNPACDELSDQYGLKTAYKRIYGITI
Test: co-IP; mouse striatum homogenised in NP-40 buffer with protease and phosphatase inhibitors; supernatant incubated 2 h at 4°C with anti-OCN antibody on protein G agarose beads, three NP-40 washes; western blot with anti-Gpr158 and anti-GPRC6a antibodies

- binding: binds
B1: GPR158 (receptor, UniProt Q8C419 25-1200)
chain: SLDPPGRPDSPRERTPRGKQHGQQLPRASAPDPSIPWSRSTDGTILAQKLAEEVPVDVASYLYTGDFHQLKRANCSGRYELAGLPGKSPSLASSHPSLHGALDTLTHATNFLNMMLQSNKSREQTVQDDLQWYQALVRSLLEGEPSISRAAITFSTESLSTPAPQVFLQATREESRILLQDLSSSAHHLANATLETEWFHGLRRKWRPHLHRRGSNQGPRGLGHSWRRRDGLGGDRSHVKWSPPYLECENGSYKPGWLVTLSAAFYGLQPNLVPEFRGVMKVDISLQKVDIDQCSSDGWFSGTHKCHLNNSECMPIKGLGFVLGAYQCICKAGFYHPRVFSVNNFQRRGPDHHFSGSTKDVSEETHVCLPCREGCPFCADDRPCFVQEDKYLRLAIISFQALCMLLDFVSMLVVYHFRKAKSIRASGLILLETILFGSLLLYFPVVILYFEPSTFRCILLRWARLLGFATVYGTVTLKLHRVLKVFLSRTAQRIPYMTGGRVMRMLAVIVLVVFWFLVGWTSSMCQNLERDILLVGQGQTSDHLTFNMCLIDRWDYMTAVAEFLFLLWGIYLCYAVRTVPSAFHEPRYMAVAVHNELIITAIFHTIRFVLASRLQPDWMLMLYFAHAHLTVTVTIGLLLIPKFSHSSNNPRDDIATEAYEDELDMGRSGSYLNSSINSAWSEHSLDPEDIRDELKKLYAQLEIYKRKKMITNNPHLQKKRCSKKGLGRSIMRRITEIPETVSRQCSKEDKEGTDHSAAKGTGLVRKNPTESSGNTGRPKEESLKNRVFSLKKSHSTYDHVRDQTVESSSLPMESQEEEATENSTLESLSSKKLTQKLKEDSEAESTESVPLVCKSASAHNLSSEKKPGHPRTSMLQKSLSVIASAKEKTLGLAGKTQTLVMEDRAKSQKPKDRETIRKYSNSDNVETIPNSGHMEEPRKPQKSGIMKQQRVSLPTANPDVSSGITQIKDNFDIGEVCPWEVYDLTPGPMPSEPKAQKHVSIAASEVEQNPASFLKEKSYHKSKATEGLYQANHKSIDKTEVCPWEIHSQSLLEDENRLISKTPVLPGRAREENGSQLYTTNMCAGQYEELPHKVVAPKVENENLNQMGDQEKQTSSSVDIIPGSCNSSNNSHQPLTSRAEVCPWEFEPLEQPNAERSVTLPASSALSANKIPGPQK

- binding: binds weakly
B2: GPRC6A (receptor, UniProt Q8K4Z6 21-928)
chain: CHTPDDFVAITSPGHIMIGGLFAIHEKMLSSDDHPRRPQIQKCAGFEISVFLQTLAMIHSIEMINNSTLLSGVKLGYEIYDTCTEVTAAMAATLRFLSKFNCSRETVVFQCDYSSYMPRVKAVIGAGYSETSIAVSRMLNLQLMPQVSYESTAEILSDKIRFPSFLRTVPSDFYQTKAMAHLIRQSGWNWIGAITTDDDYGRLALNTFAIQAAENNVCIAFKEVLPAFLSDNTIEVRINQTLEKIIAEAQVNVIVVFLRKFHVFNLFTKAIERKISKIWIASDNWSTATKIITIPNVKKLGKVVGFAFRRGNTSSFHSFLQTLHMYPNDNNKPLHEFAMLVSACKYIKDGDLSQCISNYSQATLTYDTTKTIENHLFKRNDFLWHYTEPGLIYSIQLAVFALGHAIRDLCQARDCKKPNAFQPWELLAVLKNVTFTDGRNSFHFDAHGDLNTGYDVVLWKETNGLMTVTKMAEYDLQRDVFITTNQETKHEFRKLKQILSKCSKECSPGQMKKATGSQHSCCYECVSCPENHYSNETDMDHCLLCNNETHWAPVRSTTCFEKEVEYLDWDDSLALLLIALSLLGIAFVLAIGIIFTRNLKTPVVKSSGGLVVCYVMLICHALNFASTGFFIGEPQDFACKTRQTLFGVSFTLCVSCILTKSLKILLAFSFDPKLTMFLKCLYRPVPIVLTCTGIQVVICTLWLVLAAPSVEENISLPRVIILECEEGSALAFGTMLGYITVLAFICFVFAFKGRKLPENYNEAKFLTFGMLIYFIAWITFIPVYTTTFGKYLPAVEIIVILISNYGILCCIFFPKCYIILCKQKTNTKSAFLQMVYNYSAHSVDSLALSHVSLDSTSYDTATTNQSPGNKMTACQNDNHLPAQVLPHTGTAKTIKASKTLRQKRSSSI
